Measured values reported in PubChem BioAssay AID504467 (National Center for Advancing Translational Sciences (NCATS), 2011).
The whole screen tested about 330,000 compounds, of which about 7,700 (2.3%) were called active. Inconclusive results, whose numbers are uncertain, are shown with a selection of clear calls. The call rests on the fitted dose curve; in most records, active means well fitted inhibition curve with a large enough effect; inconclusive means small, poorly fitted or top-dose-only effect, or effect the other way; inactive means flat fitted curve, though single readings scatter. Potencies of inconclusive entries are doubtful fits and often do not repeat.

assay: qHTS screen for small molecules that inhibit ELG1-dependent DNA repair in human embryonic kidney (HEK293T) cells expressing luciferase-tagged ELG1; conditions: HEK293T ELG1-luciferase reporter, luminescence, 16 h, DNA damage induced by 5-fluorouridine; activity change, negative = inhibition: at 46.1 µM (top of the series); further: nearly all actives have a fitted effect of over 55% in size
Outline: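 In this reporter screen, reduction of luminescence relative to DMSO vehicle indicated activity. Compounds and 5-fluorouridine were added together to 2,000 cells per well, incubated for 16 hr at 37 °C, then developed with ONE-Glo.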
On the % scale 0 is the no-effect control and ±100 the full control effect; potency means the concentration at half of the fitted maximal effect.

Row | Structure (SMILES) | activity change, negative = inhibition | Potency
1 | CNC(=S)N(CCc1c(C)[nH]c2ccc(C)cc12)Cc1cccnc1 | inactive: -1.07% | –
2 | Cc1c(C(=O)Nc2ccc(-c3nnc4n3CCCCC4)cc2)oc2ccc(Br)cc12 | – | inconclusive: 29.1 µM [inhibitor, single point]
3 | CC1CCCC(NC(=O)CSc2nnc(-c3cccnc3)n2N)C1C (centres undefined) | inactive: 3.38% | –
4 | Cc1ccc(C)c(OCc2cc(C(=O)N3CC[C@H](O)C3)no2)c1 | – | inconclusive: 18.3 µM [activator, partial curve]
5 | COc1cc(OC)cc(C(=O)NC(C(=O)Nc2ccc3c(c2)OCCO3)C(C)C)c1 (centres undefined) | – | inconclusive: 18.3 µM [activator, partial curve]
6 | CN1CCN(S(=O)(=O)c2cccc(C(=O)Nc3nc(-c4ccccc4)cs3)c2)CC1 | – | inconclusive: 29.1 µM [inhibitor, single point]
7 | Cc1cccc(C2c3[nH]c4ccccc4c3CCN2C(=O)c2cc(-c3cccn3C)n[nH]2)n1 (centres undefined) | – | inconclusive: 23.1 µM [inhibitor, single point]
8 | CC1CCCN(CCC(=O)Nc2ccc(Br)cc2)C1 (centres undefined) | – | inconclusive: 20.6 µM [activator, partial curve, poor fit]
9 | O=C(Nc1ccccc1)OCc1cnc(Cl)s1 | – | inconclusive: 14.6 µM [activator, partial curve, poor fit]
10 | Cc1ccnc(N=O)c1 | – | inconclusive: 20.6 µM [activator, partial curve]
11 | COc1ccc(-c2cc(=O)c3ccccc3n2C)cc1 | – | inconclusive: 14.6 µM [inhibitor, single point]
12 | COc1cccc(CNc2ccccc2O)c1OCc1ccccc1F | – | inconclusive: 2.91 µM [inhibitor, full curve]
13 | CCn1cnc2cc(NC(=O)c3ccco3)ccc21 | – | inconclusive: 7.31 µM [activator, partial curve]
14 | O=C(Nc1ccc(CN2CCOCC2)cc1)c1ccc(-c2cccc([N+](=O)[O-])c2)o1 | – | active: 13 µM
15 | O=C(COC(=O)c1c2c(nc3ccccc13)CCCCC2)NCc1ccc2c(c1)OCO2 | – | inconclusive: 23.1 µM [inhibitor, single point]
16 | CS(=O)(=O)N(Cc1ccc(Cl)cc1)c1ccc(C(=O)NCCSc2ccccn2)cc1 | – | inconclusive: 23.1 µM [inhibitor, partial curve, poor fit]
17 | C=CCOc1ccc(/C(O)=C2/C(=O)C(=O)N(CCCn3ccnc3)C2c2ccco2)cc1 (centres undefined) | – | inconclusive: 18.3 µM [activator, single point]
18 | O=C(CN1C(=O)CC(c2ccco2)Sc2ccccc21)NCc1ccc2c(c1)OCO2 (centres undefined) | – | inconclusive: 20.6 µM [inhibitor, partial curve, poor fit]
19 | C=CCOc1c(CCC)cc(CCC)cc1C(N)=O | – | inconclusive: 25.9 µM [inhibitor, partial curve, poor fit]
20 | CCCCNc1nc2c(c(=O)n(Cc3ccccc3)c(=O)n2C)n1C | – | inconclusive: 18.3 µM [inhibitor, partial curve]
21 | O=C(Nc1ccc(Br)cn1)C1CCN(S(=O)(=O)c2cccs2)CC1 | – | active: 5.8 µM
22 | CCc1cc(=O)oc2c(CNCc3c(F)cccc3Cl)c(O)ccc12 | – | inconclusive: 18.3 µM [inhibitor, single point]
23 | COc1cccc(C(=O)Nc2nnc(-c3ccccc3)s2)c1 | – | inconclusive: 9.2 µM [activator, partial curve]

One compound at a time, from the list above:
Cc1c(C(=O)Nc2ccc(-c3nnc4n3CCCCC4)cc2)oc2ccc(Br)cc12 as listed: Potency: inconclusive: 29.1 µM [inhibitor, single point]
O=C(CN1C(=O)CC(c2ccco2)Sc2ccccc21)NCc1ccc2c(c1)OCO2 (centres undefined) as listed: Potency: inconclusive: 20.6 µM [inhibitor, partial curve, poor fit]
CN1CCN(S(=O)(=O)c2cccc(C(=O)Nc3nc(-c4ccccc4)cs3)c2)CC1 as listed: Potency: inconclusive: 29.1 µM [inhibitor, single point]
Cc1cccc(C2c3[nH]c4ccccc4c3CCN2C(=O)c2cc(-c3cccn3C)n[nH]2)n1 (centres undefined) as listed: Potency: inconclusive: 23.1 µM [inhibitor, single point]

More compounds

Row | Structure (SMILES) | activity change, negative = inhibition | Potency
24 | CCOc1ccc(S(=O)(=O)N2CCN(C(=O)c3ccc(-n4cncn4)c([N+](=O)[O-])c3)CC2)cc1 | inactive: -13.3% | –
25 | Cc1ccccc1OCC(=O)N/N=C/c1ccc2c(c1)OCCO2 | inactive: 5.72% | –
26 | CC(C)NC(=S)N/N=C/c1ccc(C(C)(C)C)cc1 | – | inconclusive: 29.1 µM [inhibitor, single point]
27 | CCS(=O)(=O)N1CCN(c2ccc(C(=O)NC34CC5CC(CC(C5)C3)C4)cc2[N+](=O)[O-])CC1 | – | active: 23.1 µM
28 | C/C(=N/OC(=O)CC(C)C)c1cc(-c2ccc(Cl)cc2)no1 | – | inconclusive: 23.1 µM [activator, partial curve]
29 | CCN(CC)C(=O)C1CCCN(Cc2cccc(Oc3ccccc3)c2)C1 (centres undefined) | – | inconclusive: 29.1 µM [inhibitor, single point]
30 | O=C1C(NS(=O)(=O)c2ccc(Cl)cc2)=C(N2CCCCC2)C(=O)c2ccccc21 | inactive: -24.7% | –
31 | Cc1ccc(C)c(S(=O)(=O)N2CCCOC2CNC(=O)C(=O)NCc2cccs2)c1 (centres undefined) | inactive: -25.9% | –
32 | CCSc1nnc(NC(=O)CSc2c(Cl)cccc2Cl)s1 | inactive: -7.94% | –
33 | CCc1nnc(NS(=O)(=O)c2ccc(NC(=O)c3ccccc3C)cc2)s1 | – | inconclusive: 29.1 µM [activator, single point]
34 | Cc1cc2nc(-c3ccc(SCc4ccccc4C#N)nc3)[nH]c2cc1C | – | inconclusive: 29.1 µM [inhibitor, single point]
35 | Cc1ccc(-c2cc3nc(C)cc(NCc4ccco4)n3n2)cc1 | – | inconclusive: 2.59 µM [activator, partial curve]
36 | COc1ccc(NC(=O)Cn2cc(C(C)=O)c3ccccc32)cc1 | – | inconclusive: 4.47 µM [inhibitor, full curve, poor fit]
37 | O=C(Nc1cccc2ccccc12)N1CC=C(c2ccccc2)CC1 | inactive: -0.482% | –
38 | COc1ccccc1CC(=O)Nc1nc(-c2ccc(F)c(F)c2)cs1 | inactive: 14.9% | –
39 | COc1ccc(C(CNC(=O)Cc2ccccc2F)N2CCCCC2)cc1 (centres undefined) | – | inconclusive: 29.1 µM [inhibitor, single point]
40 | CCn1c(=O)cc(SCC(=O)NCc2ccc(C)cc2)c2ccccc21 | inactive: -5.77% | –
41 | Cc1nc(NC(=O)c2cnccn2)ccc1Br | – | inconclusive: 4.61 µM [activator, full curve]
42 | O=[N+]([O-])C1=CC=C2C(=NC3(CCCCC3)N2O)C1=NCCc1ccccc1 | – | inconclusive: 6.51 µM [activator, single point]
43 | O=C(c1ccccn1)N1CCN(S(=O)(=O)c2cccc(Br)c2)CC1 | inactive: 2.89% | –
44 | CCOC(=O)COc1nc(-c2ccc(C)cc2)cc(-c2ccco2)c1C#N | – | inconclusive: 29.1 µM [activator, single point]
45 | O=C(N/N=C/c1ccc(O)cc1O)c1ccc(CN2C(=O)c3cccc4cccc2c34)cc1 | – | active: 2.91 µM
46 | O=C(COc1ccc(S(=O)(=O)NC2CCCCC2)cc1Cl)Nc1ccc2c(c1)OCO2 | – | inconclusive: 18.4 µM [inhibitor, partial curve]

Row | Structure (SMILES) | activity change, negative = inhibition | Potency
47 | CC(=O)N1CCN(c2ccccc2NC(=O)c2ccc(-c3cccc([N+](=O)[O-])c3)o2)CC1 | – | inconclusive: 6.51 µM [inhibitor, single point]
48 | CC(C)(C)NC(=O)C(=O)N/N=C/c1cccs1 | – | inconclusive: 20.6 µM [activator, partial curve]
49 | Cc1ccc(S(=O)(=O)N2CCN(C(=O)c3ccccc3OCc3c(C)noc3C)CC2)cc1 | inactive: -12.1% | –
50 | CCc1nnc(NC(=O)c2ccc(-c3ccccc3F)o2)s1 | – | inconclusive: 25.9 µM [activator, single point]
51 | COc1ccc(-n2nc(C(=O)NCC(=O)N3CCOCC3)c3ccccc3c2=O)cc1OC | inactive: -0.928% | –
52 | COc1ccc(CN(C)C(C)C(=O)Nc2ccc(S(=O)(=O)N3CCCCC3)cc2)cc1F (centres undefined) | – | inconclusive: 29.1 µM [inhibitor, single point]
53 | CCCCC(O)(CCCC)C(=O)N/N=C(\C)c1ccc(Cl)cc1 | – | inconclusive: 29.1 µM [inhibitor, single point]
54 | COc1cc(-c2nnn(Cc3ccccc3C)n2)cc(OC)c1OC | – | active: 23.1 µM
55 | CCOc1cc(-c2sc(Nc3ccc(CC)cc3)n[n+]2-c2ccccc2)ccc1OC | – | inconclusive: 3.98 µM [inhibitor, single point]
56 | Cc1sc2nc(-c3cccs3)nc(N3CCCN(C)CC3)c2c1C | – | inconclusive: 35.5 µM [inhibitor, single point]
57 | CCN(CC)CC(O)Cn1c(-c2cccc(Cl)c2)nc2cc(C)c(C)cc21 (centres undefined) | – | inconclusive: 16.4 µM [activator, partial curve, poor fit]
58 | O=S(=O)(c1ccccc1)N1CN(c2ccc(F)cc2F)c2nc3ccccc3nc21 | – | inconclusive: 29.1 µM [inhibitor, single point]
59 | O=C1N(CC(=O)N2CCc3ccccc32)CCN1Cc1ccc(Cl)cc1 | – | inconclusive: 29.1 µM [inhibitor, single point]
60 | Cc1ccc(OCCC(=O)NNC(=O)c2nn(C)c(=O)c3ccccc23)cc1 | inactive: -1.87% | –
61 | O=C(Nc1ccccc1)Nc1cc(OCC(F)(F)F)cc(OCC(F)(F)F)c1 | – | inconclusive: 23.1 µM [inhibitor, partial curve, poor fit]
62 | NS(=O)(=O)c1ccc(NCCCn2ccnc2)c([N+](=O)[O-])c1 | inactive: -5.18% | –
63 | Cc1csc2nc(COC(=O)c3cccc(N(C)C)c3)cc(=O)n12 | – | inconclusive: 4.11 µM [activator, full curve]
64 | Cc1ccc(/C=N/NC(=O)c2ccc(Br)o2)s1 | – | inconclusive: 13 µM [activator, partial curve]
65 | NC(=O)CSc1nnc(-c2ccc3c(c2)OCO3)o1 | – | inconclusive: 13 µM [activator, partial curve]
66 | CCCNC(=O)N1CCC(c2nc3ccccc3s2)CC1 | inactive: 14.9% | –
67 | COCC(C)n1c(C)cc(C(=O)CSc2nc(C)c(C)c(C)n2)c1C (centres undefined) | inactive: -22% | –
68 | Cc1ccc(NC(=O)c2ccc(NS(=O)(=O)c3c(C)noc3C)cc2)cc1C | inactive: 3.91% | –
69 | CCOc1ccc(NC(=O)c2ccc(-c3csc(C)n3)cc2)cc1 | – | inconclusive: 2.31 µM [inhibitor, partial curve, poor fit]
